# In patent EP3138849B1, “SALTS OF PHOSPHORUS-CONTAINING AMINOGLYCOSIDE ANTIBIOTICS” (Mathys AG Bettlach, priority 2015, dated 2017):
# Test system: Bacillus subtilis (ATCC 6633)
# Experiment: Content of active aminoglycoside in the salt by inhibition zone test (Hemmhoftest)
# Type: cell-based
# Conditions: content in the isolated salt, determined by inhibition zone test with Bacillus subtilis (ATCC 6633)
Substance,Gehalt an Streptomycin,Gehalt an Gentamicin-Base
Streptomycin-Dodecylphosphat-Salz [Beispiel 21],"5,4 Gew.-%",
Gentamicin-Octadodecylphosphonsäure-Salz [Beispiel 7],,"18,2 Gew.-%"
Gentamicin-Octadodecylphosphonsäure-Salz [Beispiel 8],,"17,7 Gew.-%"
Gentamicin-Dodecylphosphat-Salz [Beispiel 2],,"18,5 Gew.-%"
Gentamicin-Octadodecylphosphonsäure-Salz [Beispiel 9],,"18,1 Gew.-%"
Gentamicin-Octadecylamin-Phosphorsäure-Salz [Beispiel 10],,"28,6 Gew.-%"
Streptomycin-Dodecylphosphat-Salz [Beispiel 19],"1,9 Gew.-%",
Gentamicin-Octadecylamin-Phosphorsäure-Salz [Beispiel 11],,"20,5 Gew.-%"
Gentamicin-Octadodecylphosphonsäure-Salz [Beispiel 6],,"13,3 Gew.-%"
Gentamicin-Dodecylphosphat-Salz [Beispiel 3],,"19,4 Gew.-%"
Gentamicin-Dodecylphosphat-Salz [Beispiel 4],,"21,4 Gew.-%"
Streptomycin-Dodecylphosphat-Salz [Beispiel 20],"4,7 Gew.-%",
Gentamicin-Dodecylphosphat-Salz [Beispiel 5],,"22,5 Gew.-%"
Streptomycin-Dodecylphosphat-Salz [Beispiel 22],"2,1 Gew.-%",
